The list shows only some results of the screen, not a fair sample: it is rich in T/C values a quarter to a half above the control, in often repeated tests (any T/C) and in doses without a T/C. Other doses and runs of a compound stand elsewhere. T/C is the treated group as % of the vehicle group. Some doses have a count of surviving animals in place of a T/C: the source files T/C as zero there, which appears to mark a toxic dose or a test without result, not a measured value. Some doses without a T/C left all or most animals alive at the check, yet need not have been tolerated: survival well below the control is almost never listed, so the zero probably covers shortened survival too. Counts of survivors are from the toxicity check (mostly the fifth day) where no day follows; animals may have died later. Schedule codes are those of the source, read here as Q, the interval in days (D) or hours (H), X, the number of doses. Some entries hold several experiments; the values are given in rising order. Some schedules carry Z or #; the key to these is not given. Some molecules as drawn cover several salts, stereoisomers or complexes of the source; a dose is that of the sample tested. For survival time, the PubChem record calls one and a half times the control and up active, and a quarter to a half above the control has no call in these data; cut-offs in other NCI protocols can differ. Some T/C values are followed by the survivors on the day toxicity was checked, most often the fifth; without a count, all were alive then. Marks such as (2×) count equal records among those shown.

For the experiment, the system named is L1210 leukemia ip in BDF1 mice, survival T/C. The experiment can be described thus: NCI In Vivo Anticancer Drug Screen. Data for tumor model L1210 Leukemia (intraperitoneal) in B6D2F1 (BDF1) mice. The conditions noted are these: T/C endpoint: mean survival time, higher T/C = longer survival.
Where [1] appears, read: dose: 400.0 mg/kg/injection, schedule: Q04DX002 (ip), vehicle: saline with Tween-80.
Where [2] appears, read: dose: 200.0 mg/kg/injection, schedule: Q04DX003 (ip), vehicle: saline with Tween-80.
The mark [3] stands for this setting: dose: 200.0 mg/kg/injection, schedule: Q04DX002 (ip), vehicle: Klucel (hydroxypropylcellulose) (HPC).
Where [4] appears, read: dose: 400.0 mg/kg/injection, schedule: Q04DX002 (ip), vehicle: Klucel (hydroxypropylcellulose) (HPC).
Where [5] appears, read: dose: 400.0 mg/kg/injection, schedule: Q01DX009 (ip), vehicle: Klucel (hydroxypropylcellulose) (HPC).
The mark [6] stands for this setting: dose: 200.0 mg/kg/injection, schedule: Q01DX009 (ip), vehicle: saline with Tween-80.
The mark [7] stands for this setting: dose: 400.0 mg/kg/injection, schedule: Q01DX001 (ip), vehicle: saline with Tween-80.
Setting [8] is: dose: 400.0 mg/kg/injection, schedule: Q01DX009 (ip), vehicle: saline with Tween-80.
The mark [9] stands for this setting: dose: 200.0 mg/kg/injection, schedule: Q01DX001 (ip), vehicle: saline.
Where [10] appears, read: dose: 400.0 mg/kg/injection, schedule: Q01DX001 (ip), vehicle: saline.

Take `CC1=CC(C)(C(Cl)(Cl)Cl)C=C/C1=N\OC(C)C(=O)O` (stereo not given): where the note is “dose: 300.0 mg/kg/injection, schedule: Q01DX001 (ip), vehicle: carboxymethylcellulose (CMC)”, the survivor count is recorded as 2 of 6.

For `Cc1nccc2c(C)c3c(cc12)c1ccccc1n3CC1CO1` (stereo not given), the T/C (dose: 9.37 mg/kg/injection, schedule: Q01DX009 (ip), vehicle: saline with Tween-80) was 130 % of control and the T/C (dose: 75.0 mg/kg/injection, schedule: Q04DX003 (ip), vehicle: saline with Tween-80) was 137 % of control. In addition, the survivor count (dose: 150.0 mg/kg/injection, schedule: Q01DX009 (ip), vehicle: saline with Tween-80) was 8 of 10 and the survivor count (dose: 300.0 mg/kg/injection, schedule: Q04DX003 (ip), vehicle: saline with Tween-80) is recorded as 2 of 10.

As to `O=NN(CCCl)C(=O)Nc1ccc2c3c(cccc13)-c1ccccc1-2`, the T/C is, setting by setting: (dose: 177.0 mg/kg/injection, schedule: Q01DX001 (ip), vehicle: carboxymethylcellulose (CMC)) 128 % of control; (dose: 266.0 mg/kg/injection, schedule: Q01DX001 (ip), vehicle: carboxymethylcellulose (CMC)) 132 % of control; (dose: 400.0 mg/kg/injection, schedule: Q01DX001 (ip), vehicle: carboxymethylcellulose (CMC)) 140 % of control; (dose: 400.0 mg/kg/injection, schedule: Q01DX009 (ip), vehicle: carboxymethylcellulose (CMC)) 125 % of control [5 of 6 alive]; (dose: 500.0 mg/kg/injection, schedule: Q01DX009 (ip), vehicle: carboxymethylcellulose (CMC)) 140 % of control [5 of 6 alive].

Take `O=P(c1ccccc1)(N1CCCC1)N1CCCC1`: the survivor count (dose: 400.0 mg/kg/injection, schedule: Q04DX003 (ip), vehicle: saline) was 2 of 6.

In the case of `COc1ccccc1NC(=S)NCc1ccco1`, the survivor count under setting [1] was 1 of 3.

Regarding `CC1(C)CCC(CC(=O)O)(CC(=O)O)CC1`, the survivor count under setting [2] is 6 of 6.

Consider `CC(C)N=C(N)CSS(=O)(=O)O`, for which the survivor count by setting is: under setting [3], 1 of 3; under setting [4], 0 of 3.

Consider `CCC(=C\c1sc2ccc3ccccc3c2[n+]1CC)/C=C1/Sc2ccc3ccccc3c2N1CC`, for which the survivor count is listed as 5 of 6 (dose: 9.5 mg/kg/injection, schedule: Q01DX001 (ip), vehicle: other); 6 of 6 (dose: 19.0 mg/kg/injection, schedule: Q01DX001 (ip), vehicle: other); 0 of 6 (dose: 38.0 mg/kg/injection, schedule: Q01DX001 (ip), vehicle: other).

For `CC(C)COC(=O)c1ccc(NC(=S)Nc2ccccc2)cc1`, the survivor count under setting [5] is given as 0 of 6.

On to `NC(CSS(=O)(=O)O)=NCc1ccoc1`, for which the survivor count is, setting by setting: (dose: 100.0 mg/kg/injection, schedule: Q04DX002 (ip), vehicle: saline with Tween-80) 3 of 3; (dose: 200.0 mg/kg/injection, schedule: Q04DX002 (ip), vehicle: saline with Tween-80) 0 of 3.

Take `COc1ccc(/C=N/NC(=O)CCCCCCCCC(=O)N/N=C/c2ccc(OC)c(OC)c2)cc1OC`: the T/C is, setting by setting: (dose: 100.0 mg/kg/injection, schedule: Q01DX009 (ip), vehicle: saline with Tween-80) 103, 105 (2×), 106 % of control; under setting [6], 86, 97, 115 % of control [5 of 6 alive]. Also, the survivor count is, setting by setting: under setting [6], 3 of 3; under setting [7], 1 of 3; under setting [8], 1 of 6 and 1 of 3.

`CCCCCCCCC1CCC2C3CCC4CC(C(=O)O)C(C(=O)O)CC4(C)C3CCC12C` (stereo not given): under setting [7], the survivor count was 6 of 6.

On to `Cc1cccc(C(=O)NCC(=O)O)c1`, for which the survivor count under setting [1] is recorded as 1 of 3.

For the molecule `CCCCCCC1=C(CCCCCCC(=O)O)C(=O)CC1`, the survivor count is 1 of 3 (dose: 100.0 mg/kg/injection, schedule: Q04DX002 (ip), vehicle: Klucel (hydroxypropylcellulose) (HPC)); 1 of 3 under setting [3]; 1 of 3 under setting [4].

Turning to `CC(=O)Oc1ccccc1C1OC(=O)c2ccccc2N1C(C)=O` (stereo not given), the survivor count under setting [8] is listed as 3 of 3.

In the case of `CC(C)CCCC(=O)CCCCCCC(=O)CCN(O)C(=O)C(N)CO` (stereo not given), the survivor count was 2 of 6 (dose: 50.0 mg/kg/injection, schedule: Q01DX009 (ip), vehicle: acetone); 6 of 6 (dose: 100.0 mg/kg/injection, schedule: Q04DX003 (ip), vehicle: acetone); 2 of 6 (dose: 200.0 mg/kg/injection, schedule: Q01DX001 (ip), vehicle: acetone); 0 of 6 (dose: 400.0 mg/kg/injection, schedule: Q01DX001 (ip), vehicle: acetone).

As to `O=C(CNC(=O)c1ccc(C(=O)NCC(=O)Nc2ccc(C3=NCCN3)cc2)cc1)Nc1ccc(C2=NCCN2)cc1`, the T/C by setting is: (dose: 60.0 mg/kg/injection, schedule: Q01DX001 (ip), vehicle: methylcellulose (MC)) 131 % of control; (dose: 300.0 mg/kg/injection, schedule: Q01DX001 (ip), vehicle: methylcellulose (MC)) 134 % of control (2×). In addition, the survivor count (dose: 450.0 mg/kg/injection, schedule: Q01DX Z (ip), vehicle: carboxymethylcellulose (CMC)) was 3 of 6.

On to `CCOC(=O)CC(=O)C(F)(F)F.CCOC(=O)CC(=O)C(F)(F)F.[Ni]`, for which the survivor count (dose: 80.0 mg/kg/injection, schedule: Q01DX001 (ip), vehicle: saline) is 3 of 6.

As for `CCCSCCCCSCCC`, the survivor count (dose: 100.0 mg/kg/injection, schedule: Q04DX003 (ip), vehicle: saline with Tween-80) was 6 of 6.

`CCC(CC)N(C)C(C)(C)CO`: the survivor count (dose: 400.0 mg/kg/injection, schedule: Q04DX003 (ip), vehicle: saline sonified) is listed as 1 of 6.

As to `Cc1ccnc(NC(=O)Nc2ccccc2F)c1`, the survivor count under setting [9] was 6 of 6.

As for `OC(CCN1CCCC1)(c1ccccc1)C1CCCCC1` (stereo not given), the survivor count is reported as 1 of 6 (dose: 3.12 mg/kg/injection, schedule: Q01DX009 (ip), vehicle: Klucel (hydroxypropylcellulose) (HPC)); 0 of 6 (dose: 200.0 mg/kg/injection, schedule: Q01DX009 (ip), vehicle: Klucel (hydroxypropylcellulose) (HPC)); 1 of 4 (dose: 200.0 mg/kg/injection, schedule: Q04DX003 (ip), vehicle: Klucel (hydroxypropylcellulose) (HPC)); 0 of 6 under setting [5]; 0 of 4 (dose: 400.0 mg/kg/injection, schedule: Q04DX003 (ip), vehicle: Klucel (hydroxypropylcellulose) (HPC)). For the same molecule, where the note is “dose: 25.0 mg/kg/injection, schedule: Q01DX009 (ip), vehicle: Klucel (hydroxypropylcellulose) (HPC)”, the T/C was 125 % of control.

As to `O=S1(=O)CC2(N3CCCCC3)CCCCC21` (stereo not given), the survivor count runs as follows: (dose: 2.5 mg/kg/injection, schedule: Q01DX009 (ip), vehicle: saline) 6 of 6; (dose: 100.0 mg/kg/injection, schedule: Q01DX009 (ip), vehicle: saline) 1 of 6; (dose: 200.0 mg/kg/injection, schedule: Q01DX009 (ip), vehicle: saline) 0 of 6; (dose: 400.0 mg/kg/injection, schedule: Q01DX009 (ip), vehicle: saline) 0 of 6.

Take `CCCCC(CC)COP(=O)(OCC(CC)CCCC)c1ccccc1` (stereo not given): the survivor count runs as follows: under setting [9], 2 of 4; under setting [10], 0 of 4.

As for `O=C(O)c1cccnn1`, the survivor count under setting [10] is reported as 1 of 6.

As for `CN1CCCN(C(c2ccccc2)c2ccc(Cl)cc2)CC1` (stereo not given), the survivor count was 6 of 6 (dose: 62.5 mg/kg/injection, schedule: Q01DX009 (ip), vehicle: saline) and 0 of 6 (dose: 125.0 mg/kg/injection, schedule: Q01DX009 (ip), vehicle: saline).

For the molecule `CCN(CC)CCOc1cccc(C)c1C`, the survivor count by setting is: under setting [2], 0 of 6; (dose: 400.0 mg/kg/injection, schedule: Q04DX003 (ip), vehicle: saline with Tween-80) 0 of 6.

(Values after PubChem BioAssay AID248 (DTP/NCI, 2004).)
